The results in this text go back to the supplement of paper PMC10849652.

The chains behind the UniProt entries cited, without tags or fusion partners. Where a name states a change or a piece, a line headed by the entry shows the natural chain unless it says otherwise.
UniProt P17480: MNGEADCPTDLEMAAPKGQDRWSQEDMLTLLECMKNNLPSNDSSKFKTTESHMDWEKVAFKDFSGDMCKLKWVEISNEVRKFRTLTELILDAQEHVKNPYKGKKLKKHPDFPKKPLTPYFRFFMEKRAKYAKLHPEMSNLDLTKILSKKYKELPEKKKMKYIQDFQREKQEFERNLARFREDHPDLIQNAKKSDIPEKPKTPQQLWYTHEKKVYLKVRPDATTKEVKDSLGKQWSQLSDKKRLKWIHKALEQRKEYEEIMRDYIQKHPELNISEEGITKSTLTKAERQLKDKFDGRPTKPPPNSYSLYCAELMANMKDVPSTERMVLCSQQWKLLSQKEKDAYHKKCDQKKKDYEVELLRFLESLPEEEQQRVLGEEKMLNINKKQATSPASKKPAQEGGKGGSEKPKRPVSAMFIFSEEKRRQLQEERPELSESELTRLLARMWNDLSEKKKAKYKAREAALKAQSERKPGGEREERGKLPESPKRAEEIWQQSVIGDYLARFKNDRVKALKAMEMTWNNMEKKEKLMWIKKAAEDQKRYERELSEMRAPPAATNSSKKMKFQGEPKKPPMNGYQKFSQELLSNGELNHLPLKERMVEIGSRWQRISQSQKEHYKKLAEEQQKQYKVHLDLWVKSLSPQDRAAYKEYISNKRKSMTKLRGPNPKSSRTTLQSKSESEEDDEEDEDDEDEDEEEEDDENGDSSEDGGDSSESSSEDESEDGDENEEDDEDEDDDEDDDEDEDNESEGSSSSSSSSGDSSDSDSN
UniProt O75386: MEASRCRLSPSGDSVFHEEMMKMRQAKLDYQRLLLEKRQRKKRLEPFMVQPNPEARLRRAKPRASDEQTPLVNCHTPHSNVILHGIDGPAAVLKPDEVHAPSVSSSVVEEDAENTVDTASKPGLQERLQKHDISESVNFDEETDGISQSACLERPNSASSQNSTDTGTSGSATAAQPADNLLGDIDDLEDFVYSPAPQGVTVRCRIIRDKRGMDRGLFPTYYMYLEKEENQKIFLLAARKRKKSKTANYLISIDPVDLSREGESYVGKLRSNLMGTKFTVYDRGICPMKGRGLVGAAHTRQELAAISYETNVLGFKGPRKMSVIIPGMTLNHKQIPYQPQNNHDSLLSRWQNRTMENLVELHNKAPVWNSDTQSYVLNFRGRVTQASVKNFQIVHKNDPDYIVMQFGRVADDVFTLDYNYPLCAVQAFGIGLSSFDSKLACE
UniProt Q01081: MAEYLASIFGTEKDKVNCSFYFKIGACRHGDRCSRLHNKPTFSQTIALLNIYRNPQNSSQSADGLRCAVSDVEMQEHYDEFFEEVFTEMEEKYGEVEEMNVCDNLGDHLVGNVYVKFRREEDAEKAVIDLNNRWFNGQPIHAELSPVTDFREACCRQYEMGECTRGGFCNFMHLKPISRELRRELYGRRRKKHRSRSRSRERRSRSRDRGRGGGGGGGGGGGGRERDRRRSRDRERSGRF
UniProt Q9NPD8: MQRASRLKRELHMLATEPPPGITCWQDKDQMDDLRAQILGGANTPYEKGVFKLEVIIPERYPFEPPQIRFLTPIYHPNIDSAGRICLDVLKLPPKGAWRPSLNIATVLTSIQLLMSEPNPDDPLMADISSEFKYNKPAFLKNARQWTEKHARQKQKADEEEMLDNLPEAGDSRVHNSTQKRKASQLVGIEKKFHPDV
UniProt Q9Y5Z9: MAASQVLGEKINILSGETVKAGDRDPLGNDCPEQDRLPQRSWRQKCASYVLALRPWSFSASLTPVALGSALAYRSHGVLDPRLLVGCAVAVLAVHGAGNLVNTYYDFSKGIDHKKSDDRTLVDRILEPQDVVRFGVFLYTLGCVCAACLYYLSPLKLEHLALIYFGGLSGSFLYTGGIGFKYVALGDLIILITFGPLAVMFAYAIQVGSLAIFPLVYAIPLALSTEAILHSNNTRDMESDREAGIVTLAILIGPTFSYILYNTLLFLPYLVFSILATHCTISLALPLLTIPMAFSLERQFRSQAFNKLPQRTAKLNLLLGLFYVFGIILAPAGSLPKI
UniProt Q8N806: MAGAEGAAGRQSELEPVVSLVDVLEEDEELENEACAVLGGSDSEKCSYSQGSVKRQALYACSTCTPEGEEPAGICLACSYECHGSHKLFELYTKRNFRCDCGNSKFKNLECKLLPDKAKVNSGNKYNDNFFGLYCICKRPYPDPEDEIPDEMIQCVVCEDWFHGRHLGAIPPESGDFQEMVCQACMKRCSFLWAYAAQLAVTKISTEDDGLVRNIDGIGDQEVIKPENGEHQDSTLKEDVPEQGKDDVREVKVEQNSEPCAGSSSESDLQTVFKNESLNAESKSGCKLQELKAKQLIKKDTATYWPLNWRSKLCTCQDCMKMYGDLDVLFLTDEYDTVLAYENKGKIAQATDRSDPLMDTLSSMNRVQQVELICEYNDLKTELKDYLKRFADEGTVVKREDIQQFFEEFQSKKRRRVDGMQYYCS
UniProt Q9NV66: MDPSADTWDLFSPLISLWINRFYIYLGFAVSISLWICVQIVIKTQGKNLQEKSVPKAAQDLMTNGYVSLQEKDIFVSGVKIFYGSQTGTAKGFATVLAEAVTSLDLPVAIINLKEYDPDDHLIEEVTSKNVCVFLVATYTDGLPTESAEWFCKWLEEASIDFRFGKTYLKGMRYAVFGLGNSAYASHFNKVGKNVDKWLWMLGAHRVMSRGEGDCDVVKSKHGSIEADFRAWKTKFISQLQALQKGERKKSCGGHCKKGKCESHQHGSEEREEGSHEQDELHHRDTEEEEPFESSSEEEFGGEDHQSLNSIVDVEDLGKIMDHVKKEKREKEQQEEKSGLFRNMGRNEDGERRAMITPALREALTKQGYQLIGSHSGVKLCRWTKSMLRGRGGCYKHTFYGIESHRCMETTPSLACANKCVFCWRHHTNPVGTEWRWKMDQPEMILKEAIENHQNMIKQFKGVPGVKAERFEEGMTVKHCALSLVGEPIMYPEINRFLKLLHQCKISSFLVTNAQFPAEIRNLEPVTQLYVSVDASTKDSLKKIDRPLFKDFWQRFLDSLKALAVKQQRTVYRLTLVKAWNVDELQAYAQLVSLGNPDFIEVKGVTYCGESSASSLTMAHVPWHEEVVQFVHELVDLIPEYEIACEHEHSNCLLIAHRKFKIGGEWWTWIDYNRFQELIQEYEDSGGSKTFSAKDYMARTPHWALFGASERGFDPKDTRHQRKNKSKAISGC
UniProt Q6ZU65, whole entry, looked up: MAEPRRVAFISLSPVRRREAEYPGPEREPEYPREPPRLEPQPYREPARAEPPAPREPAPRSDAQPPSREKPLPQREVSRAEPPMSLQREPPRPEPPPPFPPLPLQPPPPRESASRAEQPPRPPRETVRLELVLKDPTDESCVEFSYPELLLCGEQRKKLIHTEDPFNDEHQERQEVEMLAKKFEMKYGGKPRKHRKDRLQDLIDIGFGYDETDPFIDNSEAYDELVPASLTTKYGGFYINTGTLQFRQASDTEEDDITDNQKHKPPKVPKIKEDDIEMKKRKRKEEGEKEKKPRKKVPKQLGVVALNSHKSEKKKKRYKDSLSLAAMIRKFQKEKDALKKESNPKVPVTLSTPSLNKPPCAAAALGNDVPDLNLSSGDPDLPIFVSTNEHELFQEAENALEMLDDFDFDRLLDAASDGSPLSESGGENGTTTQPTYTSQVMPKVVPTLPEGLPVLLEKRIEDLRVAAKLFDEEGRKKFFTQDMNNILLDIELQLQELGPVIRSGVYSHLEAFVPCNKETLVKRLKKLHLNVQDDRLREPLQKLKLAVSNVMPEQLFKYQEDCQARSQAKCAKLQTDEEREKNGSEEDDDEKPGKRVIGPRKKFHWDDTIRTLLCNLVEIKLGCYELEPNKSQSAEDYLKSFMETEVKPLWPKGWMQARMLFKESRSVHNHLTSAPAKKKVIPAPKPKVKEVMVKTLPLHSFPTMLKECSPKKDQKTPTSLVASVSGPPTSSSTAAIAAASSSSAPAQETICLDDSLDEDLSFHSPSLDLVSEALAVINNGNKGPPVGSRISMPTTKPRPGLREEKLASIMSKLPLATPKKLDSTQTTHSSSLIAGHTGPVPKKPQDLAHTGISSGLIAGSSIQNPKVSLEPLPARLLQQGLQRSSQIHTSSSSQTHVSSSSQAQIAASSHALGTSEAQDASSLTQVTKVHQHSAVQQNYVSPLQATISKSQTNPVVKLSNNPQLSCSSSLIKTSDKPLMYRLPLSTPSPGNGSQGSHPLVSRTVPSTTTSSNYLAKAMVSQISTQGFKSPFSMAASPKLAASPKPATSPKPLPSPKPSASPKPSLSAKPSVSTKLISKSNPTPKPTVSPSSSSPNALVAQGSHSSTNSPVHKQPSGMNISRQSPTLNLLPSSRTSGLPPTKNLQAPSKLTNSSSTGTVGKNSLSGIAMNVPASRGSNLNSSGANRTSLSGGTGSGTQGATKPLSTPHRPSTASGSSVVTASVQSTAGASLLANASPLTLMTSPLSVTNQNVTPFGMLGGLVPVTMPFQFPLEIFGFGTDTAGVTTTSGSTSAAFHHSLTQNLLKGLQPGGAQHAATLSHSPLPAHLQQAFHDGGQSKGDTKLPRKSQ
UniProt Q96LJ8: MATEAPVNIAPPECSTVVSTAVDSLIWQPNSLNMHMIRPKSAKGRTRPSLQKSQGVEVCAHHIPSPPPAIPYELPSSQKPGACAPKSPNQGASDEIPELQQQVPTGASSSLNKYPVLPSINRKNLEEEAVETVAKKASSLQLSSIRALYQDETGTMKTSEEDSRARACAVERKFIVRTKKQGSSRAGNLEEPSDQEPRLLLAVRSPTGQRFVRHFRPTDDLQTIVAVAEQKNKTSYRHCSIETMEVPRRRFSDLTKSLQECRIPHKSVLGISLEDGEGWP
UniProt Q9HA47: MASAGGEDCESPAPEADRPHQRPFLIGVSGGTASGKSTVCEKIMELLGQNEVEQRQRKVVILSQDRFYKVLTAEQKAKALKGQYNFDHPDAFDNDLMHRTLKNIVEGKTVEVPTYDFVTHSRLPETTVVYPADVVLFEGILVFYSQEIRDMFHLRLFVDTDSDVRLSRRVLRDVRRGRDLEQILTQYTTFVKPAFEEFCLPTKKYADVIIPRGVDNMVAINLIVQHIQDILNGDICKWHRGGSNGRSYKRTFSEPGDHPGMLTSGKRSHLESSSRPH
UniProt Q6PKC3: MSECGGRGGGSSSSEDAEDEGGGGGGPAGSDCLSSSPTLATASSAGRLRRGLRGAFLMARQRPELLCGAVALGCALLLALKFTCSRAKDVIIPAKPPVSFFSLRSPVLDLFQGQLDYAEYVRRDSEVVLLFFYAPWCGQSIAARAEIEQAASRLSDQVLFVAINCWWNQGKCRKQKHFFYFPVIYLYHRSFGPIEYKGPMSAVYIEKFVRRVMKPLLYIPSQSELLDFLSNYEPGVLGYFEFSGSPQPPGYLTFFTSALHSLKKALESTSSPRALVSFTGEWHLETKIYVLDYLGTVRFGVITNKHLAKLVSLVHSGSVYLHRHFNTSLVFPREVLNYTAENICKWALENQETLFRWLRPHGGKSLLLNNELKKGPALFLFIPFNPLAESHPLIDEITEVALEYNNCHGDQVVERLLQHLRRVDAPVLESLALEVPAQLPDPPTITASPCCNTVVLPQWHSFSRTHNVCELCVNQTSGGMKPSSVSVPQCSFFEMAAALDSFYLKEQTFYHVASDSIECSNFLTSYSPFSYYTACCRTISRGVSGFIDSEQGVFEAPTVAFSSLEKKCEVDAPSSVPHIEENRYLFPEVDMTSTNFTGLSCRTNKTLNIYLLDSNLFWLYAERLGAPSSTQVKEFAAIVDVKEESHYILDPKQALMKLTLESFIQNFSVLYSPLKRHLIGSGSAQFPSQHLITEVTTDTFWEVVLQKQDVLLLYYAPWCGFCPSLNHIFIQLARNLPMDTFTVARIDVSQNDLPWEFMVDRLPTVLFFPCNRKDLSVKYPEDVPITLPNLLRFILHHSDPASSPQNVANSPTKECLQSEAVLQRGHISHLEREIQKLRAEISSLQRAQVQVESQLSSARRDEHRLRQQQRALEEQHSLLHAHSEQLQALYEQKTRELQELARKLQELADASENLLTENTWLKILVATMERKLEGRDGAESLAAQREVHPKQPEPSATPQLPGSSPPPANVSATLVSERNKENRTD
UniProt Q9NY65, whole entry, looked up: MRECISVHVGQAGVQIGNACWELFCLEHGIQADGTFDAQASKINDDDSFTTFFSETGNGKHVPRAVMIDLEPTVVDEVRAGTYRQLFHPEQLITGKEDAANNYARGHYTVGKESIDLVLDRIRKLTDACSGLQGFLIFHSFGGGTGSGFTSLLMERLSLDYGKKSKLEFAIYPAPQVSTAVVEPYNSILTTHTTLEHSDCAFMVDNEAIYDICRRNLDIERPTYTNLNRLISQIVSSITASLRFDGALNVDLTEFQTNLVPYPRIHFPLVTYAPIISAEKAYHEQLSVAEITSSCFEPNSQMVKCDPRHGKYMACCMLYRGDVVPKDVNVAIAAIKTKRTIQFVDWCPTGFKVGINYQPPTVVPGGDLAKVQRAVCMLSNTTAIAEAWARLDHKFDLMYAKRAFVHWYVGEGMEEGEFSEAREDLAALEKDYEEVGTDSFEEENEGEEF

Common to all, as to assay: log2 fold change, soluble protein after heating vs DMSO (PISA); higher = thermal stabilisation; K562 lysate, 10 uM; active = over 0.2 and 3.5 SD of the protein, either way, in both replicates (recomputed)
Compound in assay [1]: C#Cc1cccc(Nc2ncnc3cc(OCCOC)c(OCCOC)cc23)c1 [erlotinib]
In outline: (§1)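 Values give the log-two fold change in thermal stability against solvent controls, from duplicates. Crude K562 extract at 1 mg/mL protein, made by dounce homogenisation in PBS pH 7.4 with 1 mM MgCl2, was treated with 10 μM compound for 30 min. After 3 min heating across 48°C-58°C, aliquots were pooled, adjusted to 0.5% NP-40 at 4°C and centrifuged at 21,000xg for 90 min. The supernatant was measured by TMTpro 16plex LC-MS/MS with channel sums equalised.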

Compound in assay [2]: C/C(=N\NC(=O)C1=CC(=CC=C1)S(=O)(=O)N2CCOCC2)/C3=C(C=CC(=C3)Cl)O
An outline of the steps:
as §1

Compound in assay [3]: C1=CC(=CC=C1C2=NC3=C(N2)C=C(C=C3)C(=O)N)OC4=CC=C(C=C4)Cl
An outline of the steps:
as §1

Compound in assay [4]: C1=CC2=C(C=CC(=C2)/C=C\3/C(=O)NC(=NCC4=CC=CS4)S3)N=C1
An outline of the steps: as §1

Compound in assay [5]: C1=CC2=NC=CN=C2C=C1/C=C/3\C(=O)NC(=O)S3
In outline: as §1

Compound in assay [6]: C1=CC=C(C=C1)C2=NC(=C(N2)C3=CC=NC=C3)C4=CC(=C(C=C4)Cl)O
An outline of the steps: as §1

Compound in assay [7]: C1=CC=C2C(=C1)C3=NNC4=CC=CC(=C43)C2=O
An outline of the steps:
as §1

Compound in assay [8]: C1CCN(C1)C(=O)NC2=CC=CC(=C2)NC3=NC=C(C(=N3)NCCC4=CN=CN4)Br
An outline of the steps:
as §1

Compound in assay [9]: C1CN(CCC1(CC2=CC=C(C=C2)Cl)N)C3=NC=NC4=C3C=CN4
In outline:
as §1

Compound in assay [10]: C1COCCN1CCN2C3=CC=CC=C3N=C2NC(=O)C4=CC(=CC=C4)[N+](=O)[O-] [IRAK-1-4 Inhibitor I]
An outline of the steps: as §1

This is one part of the list.

On to UBTF (UniProt P17480), for which the log2 fold change in assay [1] is inactive: 0.02; in [2] it was inactive: 0.015; in [3] it was inactive: 0.018; in [4], inactive: 0.03; in [5], inactive: -0.009; in assay [6] it was inactive: 0.002. Moreover, the log2 fold change in assay [7] was inactive: 0.027; in [8], inactive: 0.009; in [9], inactive: -0.022; in [10], inactive: -0.024.
With TULP3 isoform 2 (UniProt O75386), the log2 fold change in assay [1] was inactive: 0.244; in assay [2] it was inactive: -0.457; in assay [3], inactive: 0.048; in assay [4], inactive: -0.033; in [6] it was inactive: 0.03; in assay [7] it was inactive: -0.338. The log2 fold change in [10] was inactive: -0.04.
On to U2AF1 isoform 2 (UniProt Q01081), for which the log2 fold change is inactive: 0.037 in assay [1]; inactive: -0.09 in assay [2]; inactive: -0.051 in assay [3]; inactive: 0.048 in assay [4]; inactive: -0.023 in assay [5]; inactive: 0.001 in [6]. Also, the log2 fold change was inactive: 0.002 in [7], inactive: 0.007 in assay [8], inactive: -0.001 in assay [9] and inactive: -0.038 in assay [10].
Take UBE2T (UniProt Q9NPD8): the log2 fold change in assay [1] was inactive: 0.015; in [2], inactive: 0.011; in [3], inactive: -0.027; in assay [4] it was inactive: -0.016; in assay [5], inactive: 0.002; in assay [6] it was inactive: -0.019. In addition, the log2 fold change in assay [7] is inactive: -0.05; in [8], inactive: -0.017; in assay [9], inactive: -0.004; in assay [10] it was inactive: -0.004.
In the case of UBIAD1 (UniProt Q9Y5Z9), the log2 fold change in assay [1] is inactive: 0.013; in [2], inactive: 0.16; in assay [3], inactive: -0.128; in assay [4] it was inactive: 0.092; in assay [6], inactive: 0.249; in assay [7], active: 0.46. The log2 fold change in assay [8] is inactive: 0.023; in assay [9] it was inactive: 0.057; in [10], inactive: -0.042.
For the target TUBA1C (UniProt Q9BQE3), the log2 fold change was inactive: 0.007 in [1]; inactive: -0.028 in assay [2]; inactive: 0.044 in assay [3]; inactive: -0.019 in assay [4]; inactive: -0.012 in assay [5]; inactive: 0.031 in assay [6]. In addition, the log2 fold change in [7] is inactive: -0.077; in assay [8] it was inactive: -0.008; in assay [9], inactive: 0.014; in assay [10], inactive: 0.04.
As to UBR7 (UniProt Q8N806), the log2 fold change in [1] was inactive: -0.011; in assay [2], inactive: -0.046; in [3] it was inactive: 0.036; in assay [4], inactive: 0.025; in [5], inactive: -0.017; in [6] it was inactive: 0.007. For the same target, the log2 fold change in assay [7] was inactive: -0.006; in assay [8] it was inactive: 0.029; in assay [9], inactive: 0.007; in [10], inactive: -0.012.
Consider TYW1 (UniProt Q9NV66), for which the log2 fold change was inactive: 0.028 in [1]; inactive: -0.013 in assay [2]; inactive: 0.005 in [3]; inactive: -0.149 in assay [4]; inactive: -0.077 in assay [5]; inactive: -0.019 in assay [6]. Moreover, the log2 fold change is inactive: -0.236 in assay [7], inactive: 0.01 in [8], inactive: 0.098 in [9] and inactive: 0.152 in assay [10].
As for UBN2 (UniProt Q6ZU65), the log2 fold change in assay [1] is inactive: 0.075; in assay [2], inactive: -0.442; in assay [3], inactive: -0.104; in [4], inactive: -0.18; in assay [6], inactive: -0.016; in [7] it was inactive: -0.084. Further, the log2 fold change is inactive: -0.005 in [8], inactive: 0.172 in [9] and inactive: 0.012 in [10].
As for UBR4 (UniProt Q5T4S7), the log2 fold change was inactive: 0 in assay [1]; inactive: 0.039 in assay [2]; inactive: -0.016 in assay [3]; inactive: 0.017 in assay [4]; inactive: -0.006 in assay [5]; inactive: 0.008 in [6]. Also, the log2 fold change in [7] was inactive: -0.01; in assay [8] it was inactive: -0.021; in [9] it was inactive: 0.002; in assay [10] it was inactive: -0.009.
As to UBXN10 (UniProt Q96LJ8), the log2 fold change was inactive: 0.064 in assay [1]; inactive: 0.026 in assay [2]; inactive: 0.057 in assay [3]; inactive: -0.089 in [4]; inactive: -0.072 in assay [5]; inactive: 0.027 in [6]. In addition, the log2 fold change in [7] was inactive: 0.018; in assay [8] it was inactive: -0.012; in [9], inactive: 0.041; in assay [10], inactive: 0.03.
As for UCK1 isoform 4 (UniProt Q9HA47), the log2 fold change is inactive: 0.021 in assay [1]; inactive: -0.062 in assay [2]; inactive: 0.06 in assay [3]; inactive: 0.024 in assay [4]; inactive: 0.048 in assay [5]; inactive: 0.046 in [6]. Also, the log2 fold change in [7] was inactive: 0.027; in [8], inactive: 0.019; in [9], inactive: -0.003; in assay [10] it was inactive: 0.
Regarding TUBD1 (UniProt Q9UJT1), the log2 fold change was inactive: -0.019 in [1]; inactive: 0.046 in assay [2]; inactive: 0.148 in assay [3]; inactive: 0.012 in [4]; inactive: 0.117 in assay [5]; inactive: -0.123 in assay [6]. Moreover, the log2 fold change in assay [7] was inactive: -0.017; in assay [8], inactive: -0.065; in assay [9] it was inactive: -0.013; in assay [10], inactive: 0.061.
Take U2AF2 (UniProt K7ELP8): the log2 fold change in assay [2] was inactive: -0.349; in [4] it was inactive: 0.205; in assay [7] it was inactive: -0.13; in assay [8], inactive: -0.139; in assay [9], inactive: -0.171.
For TXNDC11 (UniProt Q6PKC3), the log2 fold change is inactive: 0.222 in assay [1]; inactive: -0.01 in assay [3]; inactive: 0.076 in assay [5]; inactive: -0.04 in assay [6]; inactive: -0.06 in [8]; inactive: -0.038 in assay [9]. Besides, the log2 fold change in assay [10] is inactive: 0.034.
TUBA4A (UniProt C9JQ00): the log2 fold change in assay [5] is inactive: -0.18.
With UBA52 (UniProt P62987), the log2 fold change in assay [1] is inactive: -0.124; in assay [3], inactive: -0.173; in assay [5], inactive: -0.031; in [8], inactive: -0.008; in assay [9] it was inactive: 0.009.
For the target TUBA8 (UniProt Q9NY65), the log2 fold change in [1] was inactive: -0.059; in assay [3], inactive: 0.004; in [5] it was inactive: -0.034; in [8], inactive: -0.074; in assay [9], inactive: -0.087.
